Measured values reported in the supplement of paper PMC5949888.
Most values lie at the floor of the assay. Slopes are relative: functional sequences can read slightly below zero.

Test system: Saccharomyces cerevisiae PS128 hsf1 delta, HSF1(1-493) fusion
Assay: growth estimate (transactivation domain function in HSF1 fusion, heat-shock survival) (a.u. (slope of normalised read count over time)); higher = stronger growth at 37°C, i.e. more transactivation activity
Conditions: library: random library

Substance	growth estimate
ENERKRRDISADFHPDGHQA	< -0.25
CPRTGISTGESLAIAFL	< -0.25
LATKKQCHVFR	< -0.25
GYISPSRLNVSCGIDQT	< -0.25
GNHDR	< -0.25
CGG	< -0.25
LHPGSTPSVNEITSSRIEPG	< -0.25
PGGMSIQRDSVPRPSTSGNA	< -0.25
WGAGDA	< -0.25
EQS	< -0.25
VCLTKTSESYPRV	< -0.25
DESQKSHGRGGCPNLWVLLI	< -0.25
VGPRDHIAWRGIWRQLTQCG	< -0.25
SALLLPLNAYRALVRPGNAK	< -0.25
GMVKSG	< -0.25
VGEVVTTWVDVSV	0.19
LATLTYAKPVQRSAGAQTWW	< -0.25
SAQGIRGSVVWRIAVRHSLA	< -0.25
WGPVGPPARDAFCFSGVQRP	< -0.25
SRDREPEVKRPCLLDITCLY	< -0.25
EMTRNR	< -0.25
LAFFRSREIRRAIFAWRTKR	< -0.25
YRAI	< -0.25

Substance	growth estimate
TGDLRLEGCC	< -0.25
TVGWWLGQAGKRSVDKNRGP	< -0.25
VEWPCMCLGNCASVDCS	< -0.25
RVIH	-0.168
HSAYYLEIS	< -0.25
VPQTCRGVFRLPQERLKWRY	< -0.25
SFWDASSTFRRCIHS	< -0.25
KVGNTERLPRIDFKECRARV	< -0.25
GVSHCTVAVVVVKDALDGED	< -0.25
SKIHWVA	< -0.25
VWH	< -0.25
HTTPATTILLV	< -0.25
GLAGLSDAQPRGIASGS	< -0.25
GRPLTCRYWSCGSRFASKTR	< -0.25
QVRRTPT	< -0.25
LGLLSHTWTTINQGHVNKWA	< -0.25
VLQSRRCTILATVYIDLAES	< -0.25
RDEDPSRI	< -0.25
TTVVLQLLAWGGHESVRKQY	< -0.25
MLSPRCKSSYLRRLVESSHA	-0.246
PVWEVESACPNSDSALAAKS	< -0.25
SLAATCVYVASSSASDQTEA	< -0.25
GERKYGRATVLPETLLLTSI	< -0.25

Reprinted at random: 6 entries already listed.
Substance	growth estimate
VWH	< -0.25
SALLLPLNAYRALVRPGNAK	< -0.25
HTTPATTILLV	< -0.25
SAQGIRGSVVWRIAVRHSLA	< -0.25
LATLTYAKPVQRSAGAQTWW	< -0.25
SFWDASSTFRRCIHS	< -0.25

(listing goes on)

Substance	growth estimate
QTGVRSI	< -0.25
CREFYAVRRLCD	< -0.25
SDVTLRDSSCQDMRAGGPNI	< -0.25
GRAAFQGIEHGPAGPASNVR	< -0.25
SAARSAFFEHLCRNALPLAL	< -0.25
SKCTLSSSTGGSSWFVTIY	< -0.25
LPVRSITFKVSGDSPSLCFS	< -0.25
GSMPHVLRPHCGPVFIAPNS	< -0.25
TQGGPQIESPGLS	< -0.25
IIM	< -0.25
CDKS	< -0.25
GGEPWICGGPQVLLGSTYAS	< -0.25
MTIVERVRLAPSSTRGHPVI	< -0.25
TVGKWRCYEIARVKRLTTGP	< -0.25
SNGV	< -0.25
FRAGGQGRC	< -0.25
AWEEY	< -0.25
TGEGAT	< -0.25
VAMGTERGCERFKLQWTRPL	< -0.25
KSHVR	< -0.25
LLISCRF	< -0.25
RLGRAEVQWLARR	< -0.25
GRLLTNCPTPTKSSCSKRRA	< -0.25

Substance	growth estimate
PYAPYVHPHLDEVTK	< -0.25
KLSVNHRGSLTF	< -0.25
NWRFLTTERAFNSPSRATRD	< -0.25
WYLSVTAYRIHAGNEEFVPS	< -0.25
RNVCRSALVDDGSRSFTRIP	< -0.25
SHTTHA	< -0.25
IRVK	< -0.25
KGGWPPSGCRPEEIPSSTLV	< -0.25
RPYRGRRGSAHIFSVQETS	-0.122
GFGITIFRVLNGLLSCGIVP	< -0.25
AALLSAQ	< -0.25
QKRGSL	< -0.25
VSYSCACDCGETFRTRLWTT	< -0.25
PSSISS	< -0.25
RQRPLYRYRPQCSR	< -0.25
SGAVIFLGCNIDPLRYAYGF	< -0.25
LLWPDAIDVGQMWLFY	< -0.25
RITGKMKRTHARGTYPEIAA	< -0.25
PATVSLRLNGARLILGIPVG	< -0.25
YGRVPSRAAHMFVHNLRPVY	< -0.25
LNTGILIPDTCVGLVR	< -0.25
LRRRCMIEGAF	< -0.25
RKHAFEARCSWRGK	< -0.25

Substance	growth estimate
EIDGLIRDERGMFSIDCVTI	< -0.25
SEYCSSMGPDPGKLHSPRRI	< -0.25
NYYAE	< -0.25
LGASQLDI	< -0.25
RYPGAI	< -0.25
EVGLSTRWV	< -0.25
KECSSVSPELGLTYGVSSNW	< -0.25
SKTESGAYWVREYPKGVSPK	< -0.25
RLFHVSSGSPSTQPRNPTRS	< -0.25
AFTAWTRCGGGTVALLLSRR	< -0.25
TLSRVGIGSSSMGQGRVGGL	< -0.25
FSGIMKSCH	< -0.25
ISWNLQIYTLAV	< -0.25
SRKESGCSICQHRCCKSSVE	< -0.25
SLG	< -0.25
GGTGAGSLKALH	< -0.25
ITSNALHNR	< -0.25
LREADS	< -0.25
GPIGRRGFGESSYSG	-0.231
TIVWVDFLGSL	< -0.25
FGLLILAPRTSLPL	< -0.25
CHFLLYNLHL	< -0.25
VDGAIALDRIFSR	< -0.25

Substance	growth estimate
RHTGWPDHVYAWSYASPDDL	< -0.25
VAIRGRSPSRL	< -0.25
VPGRSLRSNSAALCRWKP	< -0.25
VAVALLGVIRQPDCFLKTAN	< -0.25
QEDGWLRVPGTRDAT	< -0.25
WPPKWEGVHR	< -0.25
GYGLQTKRRVRVSGKPYLKA	< -0.25
WRGVQGAADKYLRLKFVRMF	< -0.25
ELGSGRLNILAGEDGSGSDA	< -0.25
LCWVPQGLFCSCSGGLLGKV	< -0.25
RNRKPGGTCHCR	-0.14
WTTPGDGYEPCGGDVTHWKV	< -0.25
KPCPLHPHEGARG	< -0.25
SLVRCVNI	-0.157
ASISQCISAVNSWPFSRRCR	< -0.25
AVIWRF	< -0.25
TGSYFLSGSKGDEHIMARVQ	-0.241
LRTLILHVGACPGMGKPSLV	< -0.25
CQE	< -0.25
VRPVVGTGGVGSGTHRAQST	< -0.25
CVKVEPGKWTKPADSERKVG	< -0.25
RSMGSIPGVGW	< -0.25
FGIRCVIDVEGTKLSEFLFT	< -0.25

Some of the entries so far, with bars between the fields:
Substance | growth estimate
SHTTHA | < -0.25
VAIRGRSPSRL | < -0.25
CVKVEPGKWTKPADSERKVG | < -0.25

(next part)

Substance	growth estimate
SGFGHKGVNSEGRSPRTGLS	< -0.25
RYIPS	< -0.25
RLCYHPSRPYAGGSCGAHRS	< -0.25
RGIYFPSMSMIGAKWRRILG	< -0.25
CRVADSQNLFDEKVGLLGYC	< -0.25
RFGGRRRPTRCRRKTSDVHA	< -0.25
SQTLGTGLFSLSNGRRA	< -0.25
FMTVRPDQSV	< -0.25
VYPSR	< -0.25
HATGVNETERTLRVSTFCST	< -0.25
IYCPWERTI	< -0.25
FAHATAGMRRELCFNQLSGG	< -0.25
VDGQTSMVGIATVYSILLYG	< -0.25
TSGGPRPLRTWLSSAS	< -0.25
LRPDDIRSDYPGRSKTNQYT	< -0.25
LGSRFRV	< -0.25
TYFWLYLACSARLDCK	-0.25
DCQRSPLGPVTWVGLTVDVR	< -0.25
VKRRLNLRERRTRTAG	< -0.25
RVESIVSEE	< -0.25
